In patent publication US20090203877A1 (Eberhard-Karls-Universitaet Tuebingen Universitaetsklinkum, priority 2006, published 2009):

Experiment: general procedure: Fmoc solid-phase peptide synthesis; Fmoc Rink Amid Tentagel SRAM (0.25 mM/g) (Rapp Polymere); TBTU + diisopropylethylamine
Details: whole synthesis, analytical HPLC and ESI/MS

Substance: PEPTIDE1{P.K.K.K.R.K.V.K.G.G.K.P.L.G.V.R.K.[am]}|PEPTIDE2{[FITC5]}|PEPTIDE3{[TIBA]}|PEPTIDE4{[TIBA]}$PEPTIDE1,PEPTIDE2,8:R3-1:R2|PEPTIDE1,PEPTIDE3,11:R3-1:R2|PEPTIDE1,PEPTIDE4,17:R3-1:R2$$$V2.0
- final HPLC purity: purity at least 98%

Substance: PEPTIDE1{[TIBA].P.K.K.K.R.K.V.K.G.G.K.[am]}|PEPTIDE2{[FITC5]}$PEPTIDE1,PEPTIDE2,9:R3-1:R2$$$V2.0
- final HPLC purity: at least 98%

Some peptides are written in HELM: one residue between dots, names in brackets for other building blocks, links after the first $.
